# In the supplement of paper PMC12067093, “Discovery and optimisation of a covalent ligand for TRIM25 and its application to targeted protein ubiquitination” (Chemical Science, 2025):
# The list shows a part of the results.
# Compound: CC1Cc2ccccc2N1C(=O)C1CCCN(C1)C(=O)CCl (mixture of isomers) [TRIM25 ligand 11 (diastereomer mixture)]
# Test: probe-labelled cysteine peptide fold change vs DMSO (competition) (log2 fold change); higher = less target engagement (more negative = stronger competition)
# Settings: THP-1, incubation time: 4 h
# 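Note: competitive chemoproteomic profiling in live THP-1 cells with an iodoacetamide desthiobiotin (IA-DTB) probe, comparing probe-labelled peptide intensities in compound-treated cells against DMSO-treated controls.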
Target,probe-labelled cysteine peptide fold change (10 µM),probe-labelled cysteine peptide fold change (50 µM)
GLOD4_Q9HC38_269_ATVQVVILADPDGHEICFVGDEAFR (UniProt Q9HC38),0.00217,0.119
GIT2_Q14161_235_LAFYLCGR (UniProt Q14161),-0.0819,-0.00883
GPHN_Q9NQX3_26_VGVLTVSDSCFR (UniProt Q9NQX3),-0.027,-0.0657
GPAA1_O43292_266_GGLLCTLQGK (UniProt O43292),0.115,0.205
GOT1_P17174_46_TDDCHPWVLPVVK (UniProt P17174),0.0408,-0.0235
GLIPR1_P48060_192_GATCSACPNNDK (UniProt P48060),0.0428,0.0349
GMEB1_Q9Y692_274_GIADVGLMEEVVCNIQK (UniProt Q9Y692),-0.112,0.0135
GMPS_P49915_252_VLVLLSGGVDSTVCTALLNR (UniProt P49915),-0.153,0.0888
GNB1_P62873_294_LLLAGYDDFNCNVWDALK (UniProt P62873),0.00644,0.00914
GLCCI1_Q86VQ1_207_ATQTPSCWAEEGAEKR (UniProt Q86VQ1),-0.146,-0.352
GNB4_Q9HAV0_271_ADQELLLYSHDNIICGITSVAFSK (UniProt Q9HAV0),0.0483,0.11
GMIP_Q9P107_508_ECEAFMVSGTECEECFLTCHK (UniProt Q9P107),-0.086,-0.0785
GPD2_P43304_385_NYLSCDVEVR (UniProt P43304),0.0483,0.0279
GLUD1_P00367_376_PYEGSILEADCDILIPAASEK (UniProt P00367),-0.0111,-0.112
GMFG_O60234_8_SDSLVVCEVDPELTEK (UniProt O60234),-0.0867,-0.174
GNL3_Q9BVP2_156_VIEASDVVLEVLDARDPLGCR (UniProt Q9BVP2),-0.281,-0.229
GK_P32189_299_CVFSDHGLLTTVAYK (UniProt P32189),0.031,-0.0458
GLA_P06280_382_GVACNPACFITQLLPVK (UniProt P06280),-0.0456,-0.0109
GNB2_P62879_204_TFVSGACDASIK (UniProt P62879),0.0639,0.0528
GNAS_P63092_3_GCLGNSK (UniProt P63092),-0.0143,0.00877
GNAI2_P04899_66_IIHEDGYSEEECR (UniProt P04899),0.123,-0.00252
GMDS_O60547_92_LHYGDLTDSTCLVK (UniProt O60547),-0.0234,0.105
GPD1L_Q8N335_202_ITVVDDADTVELCGALK (UniProt Q8N335),0.0754,-0.117

# Exported with bars between the fields: entries from further up
Target | probe-labelled cysteine peptide fold change (10 µM) | probe-labelled cysteine peptide fold change (50 µM)
GIT2_Q14161_235_LAFYLCGR (UniProt Q14161) | -0.0819 | -0.00883
GMFG_O60234_8_SDSLVVCEVDPELTEK (UniProt O60234) | -0.0867 | -0.174
